Reference: the supplement of paper PMC10032668
The list shows a part of the results. The list holds hits alone, and they repeat only in part.

Sequences of proteins named here, by UniProt entry; tags and fusion partners are left off.
H2AFY2, Q9P0M6, UniProt Q9P0M6, whole entry: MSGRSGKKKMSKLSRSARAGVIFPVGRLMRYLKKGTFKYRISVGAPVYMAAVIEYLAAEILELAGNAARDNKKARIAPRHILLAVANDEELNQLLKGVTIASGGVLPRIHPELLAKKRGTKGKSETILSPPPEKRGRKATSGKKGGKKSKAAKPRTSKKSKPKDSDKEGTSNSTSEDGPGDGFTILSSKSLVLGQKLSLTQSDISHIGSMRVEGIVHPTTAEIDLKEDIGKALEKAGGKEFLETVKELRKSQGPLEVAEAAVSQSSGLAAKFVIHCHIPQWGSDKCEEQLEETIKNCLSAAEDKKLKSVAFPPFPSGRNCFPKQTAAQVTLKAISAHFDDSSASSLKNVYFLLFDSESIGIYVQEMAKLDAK
INTS7, Q9NVH2, UniProt Q9NVH2, whole entry: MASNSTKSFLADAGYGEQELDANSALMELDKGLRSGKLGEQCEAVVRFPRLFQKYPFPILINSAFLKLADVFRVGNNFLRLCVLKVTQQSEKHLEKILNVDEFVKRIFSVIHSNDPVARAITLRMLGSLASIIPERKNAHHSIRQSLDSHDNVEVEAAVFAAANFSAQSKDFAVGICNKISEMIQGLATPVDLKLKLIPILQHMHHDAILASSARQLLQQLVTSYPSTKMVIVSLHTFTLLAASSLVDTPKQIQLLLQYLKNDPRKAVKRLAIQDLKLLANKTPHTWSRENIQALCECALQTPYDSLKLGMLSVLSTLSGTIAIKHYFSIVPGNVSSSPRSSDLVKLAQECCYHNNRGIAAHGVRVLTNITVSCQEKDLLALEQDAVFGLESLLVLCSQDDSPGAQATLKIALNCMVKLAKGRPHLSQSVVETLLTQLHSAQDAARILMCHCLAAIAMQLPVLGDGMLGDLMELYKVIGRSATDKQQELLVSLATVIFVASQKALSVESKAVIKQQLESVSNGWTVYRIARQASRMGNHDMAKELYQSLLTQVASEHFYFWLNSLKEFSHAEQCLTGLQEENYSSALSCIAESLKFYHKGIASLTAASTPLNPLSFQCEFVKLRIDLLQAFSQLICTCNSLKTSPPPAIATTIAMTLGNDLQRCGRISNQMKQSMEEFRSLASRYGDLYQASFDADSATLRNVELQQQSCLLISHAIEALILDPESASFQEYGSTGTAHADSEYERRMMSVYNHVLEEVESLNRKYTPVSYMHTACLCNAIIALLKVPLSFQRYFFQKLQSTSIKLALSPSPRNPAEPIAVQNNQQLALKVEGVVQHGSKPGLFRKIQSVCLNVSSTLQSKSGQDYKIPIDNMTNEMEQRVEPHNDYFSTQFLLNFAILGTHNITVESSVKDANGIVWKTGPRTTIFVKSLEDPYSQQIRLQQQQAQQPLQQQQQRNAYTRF
TUBB8, Q3ZCM7, UniProt Q3ZCM7, whole entry: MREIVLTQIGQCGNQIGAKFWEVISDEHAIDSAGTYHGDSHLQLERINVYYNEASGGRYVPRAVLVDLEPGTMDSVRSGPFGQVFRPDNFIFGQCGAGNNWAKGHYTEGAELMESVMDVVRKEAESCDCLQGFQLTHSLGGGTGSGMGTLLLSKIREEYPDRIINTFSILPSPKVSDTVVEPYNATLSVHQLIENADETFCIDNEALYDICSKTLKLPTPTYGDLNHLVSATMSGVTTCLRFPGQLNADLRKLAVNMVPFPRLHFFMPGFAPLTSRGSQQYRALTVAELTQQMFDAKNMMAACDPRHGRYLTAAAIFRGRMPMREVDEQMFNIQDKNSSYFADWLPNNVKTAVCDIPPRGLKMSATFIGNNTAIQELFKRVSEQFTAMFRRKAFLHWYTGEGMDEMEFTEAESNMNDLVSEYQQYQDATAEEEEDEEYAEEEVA
NDUFA9, Q16795, UniProt Q16795, whole entry: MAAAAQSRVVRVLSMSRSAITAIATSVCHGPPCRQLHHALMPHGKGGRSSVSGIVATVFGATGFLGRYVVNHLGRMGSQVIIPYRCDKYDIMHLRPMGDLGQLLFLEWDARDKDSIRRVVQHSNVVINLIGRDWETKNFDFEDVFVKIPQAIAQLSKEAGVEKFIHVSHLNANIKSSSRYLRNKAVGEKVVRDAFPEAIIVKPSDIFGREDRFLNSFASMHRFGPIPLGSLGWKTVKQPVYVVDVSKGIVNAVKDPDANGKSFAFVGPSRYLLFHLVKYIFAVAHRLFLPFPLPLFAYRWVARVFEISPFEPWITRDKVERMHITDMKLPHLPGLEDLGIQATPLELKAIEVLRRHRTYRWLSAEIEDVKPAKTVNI
SERPINA1, P01009, UniProt P01009, whole entry: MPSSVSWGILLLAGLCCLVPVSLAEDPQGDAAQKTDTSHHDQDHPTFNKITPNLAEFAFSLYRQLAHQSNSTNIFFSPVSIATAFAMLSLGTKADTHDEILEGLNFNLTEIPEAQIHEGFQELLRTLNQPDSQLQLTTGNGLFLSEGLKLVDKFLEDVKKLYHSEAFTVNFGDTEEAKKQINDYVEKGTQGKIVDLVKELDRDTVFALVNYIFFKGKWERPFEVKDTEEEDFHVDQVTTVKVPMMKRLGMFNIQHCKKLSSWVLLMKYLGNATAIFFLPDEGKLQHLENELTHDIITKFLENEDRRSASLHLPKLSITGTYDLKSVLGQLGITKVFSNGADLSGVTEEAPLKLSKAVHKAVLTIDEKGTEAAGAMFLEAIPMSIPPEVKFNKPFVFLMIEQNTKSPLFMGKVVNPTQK
DDX10, Q13206, UniProt Q13206, whole entry: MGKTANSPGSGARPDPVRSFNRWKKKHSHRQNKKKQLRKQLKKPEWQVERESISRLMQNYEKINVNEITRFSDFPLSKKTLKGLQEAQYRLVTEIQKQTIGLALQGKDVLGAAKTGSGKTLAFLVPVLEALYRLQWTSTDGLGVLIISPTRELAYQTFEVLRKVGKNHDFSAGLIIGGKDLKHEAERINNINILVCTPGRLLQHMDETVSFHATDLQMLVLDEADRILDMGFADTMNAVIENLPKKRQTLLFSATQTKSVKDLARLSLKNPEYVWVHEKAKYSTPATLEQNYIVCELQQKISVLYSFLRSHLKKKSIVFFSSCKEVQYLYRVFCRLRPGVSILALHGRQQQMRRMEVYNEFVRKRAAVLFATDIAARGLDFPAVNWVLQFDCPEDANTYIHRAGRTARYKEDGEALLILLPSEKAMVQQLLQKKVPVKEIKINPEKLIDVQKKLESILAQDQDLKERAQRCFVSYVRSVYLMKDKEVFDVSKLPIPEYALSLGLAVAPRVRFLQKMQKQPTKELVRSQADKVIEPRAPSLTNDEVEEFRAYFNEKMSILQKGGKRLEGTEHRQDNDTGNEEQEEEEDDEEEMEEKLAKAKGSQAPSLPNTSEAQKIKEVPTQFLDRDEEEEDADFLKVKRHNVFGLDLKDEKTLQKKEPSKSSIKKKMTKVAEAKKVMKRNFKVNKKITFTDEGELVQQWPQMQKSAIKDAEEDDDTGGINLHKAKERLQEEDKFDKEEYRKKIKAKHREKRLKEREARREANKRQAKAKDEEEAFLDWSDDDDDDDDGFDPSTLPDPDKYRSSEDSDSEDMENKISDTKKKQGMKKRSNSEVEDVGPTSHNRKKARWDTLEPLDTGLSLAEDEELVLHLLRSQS
DNAJB1, P25685, UniProt P25685, whole entry: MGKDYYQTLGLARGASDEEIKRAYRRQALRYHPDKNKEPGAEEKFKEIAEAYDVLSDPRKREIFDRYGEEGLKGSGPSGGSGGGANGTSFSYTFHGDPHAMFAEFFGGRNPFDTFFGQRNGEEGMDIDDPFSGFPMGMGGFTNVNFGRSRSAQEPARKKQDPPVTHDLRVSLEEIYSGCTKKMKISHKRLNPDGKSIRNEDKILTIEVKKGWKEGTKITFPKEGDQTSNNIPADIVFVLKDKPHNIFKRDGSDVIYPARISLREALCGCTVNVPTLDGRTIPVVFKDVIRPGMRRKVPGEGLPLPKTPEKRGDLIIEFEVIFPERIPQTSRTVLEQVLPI
PARK7, Q99497, UniProt Q99497, whole entry: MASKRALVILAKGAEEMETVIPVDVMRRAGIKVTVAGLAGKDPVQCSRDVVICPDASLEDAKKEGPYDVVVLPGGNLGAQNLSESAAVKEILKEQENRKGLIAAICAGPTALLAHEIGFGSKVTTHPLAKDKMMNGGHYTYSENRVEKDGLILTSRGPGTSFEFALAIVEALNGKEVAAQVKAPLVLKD

Legend:
Experiment in all cases: PRISMA enrichment of interactor (LFQ) in peptide spot vs all other peptide spots (log2 fold change); higher = stronger / more specific binding of the interactor to the peptide
[1] = target: EBP, Q15125
Method: (§1)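 PRISMA: 15-aa overlapping tiles (offset 8 aa) of 60 microproteins, plus SOS1/GLUT1 control peptides, were spot-synthesized on cellulose membranes in triplicate. Membranes were incubated with benzonase-treated HEK293T lysate, and bound proteins were identified by LC-MS/MS with LFQ. Enrichment is the log2 fold change of each protein in one spot versus all other spots. Only interactors passing the significance cutoff are listed.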

[2] = target: FAM50A, Q14320
Method: as §1

[3] = target: H2AFY2, Q9P0M6
Method: as §1

[4] = target: INTS7, Q9NVH2
Method: as §1

[5] = target: MRPL27, Q9P0M9
Method: as §1

[6] = target: MRRF, Q96E11
Method: as §1

[7] = target: NDUFAB1, O14561
Method: as §1

[8] = target: TUBB8, Q3ZCM7
Method: as §1

[9] = target: WDR46, O15213
Method: as §1

[10] = target: ZG16B, Q96DA0
Method: as §1

[11] = target: DDX42, Q86XP3
Method: as §1

[12] = target: MRPL43, Q8N983
Method: as §1

[13] = target: NEPRO, Q6NW34
Method: as §1

[14] = target: DCUN1D5, Q9BTE7
Method: as §1

[15] = target: HDGF, P51858
Method: as §1

[16] = target: HSPBP1, Q9NZL4
Method: as §1

[17] = target: NDUFA9, Q16795
Method: as §1

[18] = target: RRP15, Q9Y3B9
Method: as §1

[19] = target: SERPINA1, P01009
Method: as §1

[20] = target: STIP1, P31948
Method: as §1

[21] = target: DDX10, Q13206
Method: as §1

[22] = target: DNAJB1, P25685
Method: as §1

[23] = target: ESYT2, A0FGR8
Method: as §1

[24] = target: NAA15, Q9BXJ9
Method: as §1

[25] = target: PAK1IP1, Q9NWT1
Method: as §1

[26] = target: PDCD6IP, Q8WUM4
Method: as §1

[27] = target: RAB6A, P20340
Method: as §1

[28] = target: RBM8A, Q9Y5S9
Method: as §1

[29] = target: SLC25A22, Q9H936
Method: as §1

[30] = target: YWHAZ, P63104
Method: as §1

[31] = target: ZNF768, Q9H5H4
Method: as §1

[32] = target: DDX5, P17844
Method: as §1

[33] = target: PARK7, Q99497
Method: as §1

[34] = target: POLR2J3, Q9H1A7
Method: as §1

[35] = target: POP1, Q99575
Method: as §1

[36] = target: PUSL1, Q8N0Z8
Method: as §1

[37] = target: TCEA1, P23193
Method: as §1

[38] = target: UFD1, Q92890
Method: as §1

## LRAFHVTPGARRRLV [EBAG9]
[1]
  PRISMA enrichment of interactor (log2): 4.67
[2]
  PRISMA enrichment of interactor (log2): 4.21
[3]
  PRISMA enrichment of interactor (log2): 5.55
[4]
  PRISMA enrichment of interactor (log2): 5.41
[5]
  PRISMA enrichment of interactor (log2): 11.4
[6]
  PRISMA enrichment of interactor (log2): 4.74
[7]
  PRISMA enrichment of interactor (log2): 3.87
[8]
  PRISMA enrichment of interactor (log2): 5.7
[9]
  PRISMA enrichment of interactor (log2): 5.97
[10]
  PRISMA enrichment of interactor (log2): 4.12

## QPDLLARRRLKRCPS [PVT1]
[11]
  PRISMA enrichment of interactor (log2): 9.94
[12]
  PRISMA enrichment of interactor (log2): 5.26
[13]
  PRISMA enrichment of interactor (log2): 4.8

## MSLRNLWRDYKVLVV [MKKS]
[14]
  PRISMA enrichment of interactor (log2): 6.28
[15]
  PRISMA enrichment of interactor (log2): 4.37
[16]
  PRISMA enrichment of interactor (log2): 4.77
[17]
  PRISMA enrichment of interactor (log2): 4.32
[18]
  PRISMA enrichment of interactor (log2): 5.79
[19]
  PRISMA enrichment of interactor (log2): 4.99
[20]
  PRISMA enrichment of interactor (log2): 9.07

## CRSSLSAPAAWARPA [RAB12]
[21]
  PRISMA enrichment of interactor (log2): 4.47
[22]
  PRISMA enrichment of interactor (log2): 5.82
[23]
  PRISMA enrichment of interactor (log2): 7.92
[24]
  PRISMA enrichment of interactor (log2): 4.51
[25]
  PRISMA enrichment of interactor (log2): 5.55
[26]
  PRISMA enrichment of interactor (log2): 6.73
[27]
  PRISMA enrichment of interactor (log2): 4.38
[28]
  PRISMA enrichment of interactor (log2): 4.39
[29]
  PRISMA enrichment of interactor (log2): 4.48
[30]
  PRISMA enrichment of interactor (log2): 4.97
[31]
  PRISMA enrichment of interactor (log2): 4.86

## FKWGFAAFVVAVGAE [NDUFB3]
[32]
  PRISMA enrichment of interactor (log2): 5.33
[33]
  PRISMA enrichment of interactor (log2): 4.79
[34]
  PRISMA enrichment of interactor (log2): 4.34
[35]
  PRISMA enrichment of interactor (log2): 6.43
[36]
  PRISMA enrichment of interactor (log2): 4.57
[37]
  PRISMA enrichment of interactor (log2): 4.13
[38]
  PRISMA enrichment of interactor (log2): 4.37
